The exact form of at least one protein or probe is not confirmed. Weaker means in comparison with the reference protein, sequence or condition of that experiment. Where a protein sequence is shown, tags need not be part of it.
Target: T1, IdeR WT (Saccharopolyspora erythraea DSM 40517) (UniProt A0ABF7PL34)
T1 sequence (looked up): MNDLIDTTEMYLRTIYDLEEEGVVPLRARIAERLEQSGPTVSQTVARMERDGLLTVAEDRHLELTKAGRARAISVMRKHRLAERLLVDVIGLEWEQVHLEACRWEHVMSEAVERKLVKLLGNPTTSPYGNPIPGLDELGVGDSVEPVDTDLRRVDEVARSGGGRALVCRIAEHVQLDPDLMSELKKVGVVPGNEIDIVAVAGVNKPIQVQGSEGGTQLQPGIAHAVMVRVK
Experiment: EMSA
Details: Mn2+ titration, binding from 15 uM, less efficient than Co2+/Fe2+, 750 nM dimer; EMSA: 15 mM Tris-acetate pH 7.3, 4 mM K-acetate, 10% glycerol, 17 ng/ul poly(dI-dC), 30 nM DNA, 30 uM Co2+, IdeR 15 nM-2.25 uM dimer, 20 min room temperature; recombinant protein; residues 1-231; label: 5' FAM on strand 1

Sequence: CGTACTTTGGTAAAGCTAACCTAAGTCACC (double strand) [C10S1]
- binding result: binds more weakly
